Consider six sequences from US20100298415.

Chains of the proteins cited; added tags and fusions are not shown. Lines headed by an entry give the natural chain unless they say otherwise; changes in a name come on top. Residues count along the entry.
UniProt O95863: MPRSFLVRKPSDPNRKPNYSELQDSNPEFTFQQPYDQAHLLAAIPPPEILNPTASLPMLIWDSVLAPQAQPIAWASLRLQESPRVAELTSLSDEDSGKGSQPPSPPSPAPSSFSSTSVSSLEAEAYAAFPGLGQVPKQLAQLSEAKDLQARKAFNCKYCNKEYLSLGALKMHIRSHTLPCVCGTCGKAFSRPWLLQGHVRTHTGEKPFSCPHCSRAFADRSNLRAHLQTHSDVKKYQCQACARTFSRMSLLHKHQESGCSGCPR
UniProt P19538, 451-603: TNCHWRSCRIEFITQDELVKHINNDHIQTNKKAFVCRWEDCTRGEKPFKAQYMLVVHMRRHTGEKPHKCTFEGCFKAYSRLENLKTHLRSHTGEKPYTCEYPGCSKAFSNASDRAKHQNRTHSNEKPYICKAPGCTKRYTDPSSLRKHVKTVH

For some assays here: Results from cells or extracts need not show a direct contact. For some assays here: Protein sequences can lack the tags named with them. For some assays here: For at least one entry, the source does not settle the construct or the ends of the probe.

One series has as its system MitF. The series can be described thus: EMSA. The settings on record: legend says Slug probe, methods list MitF probe; binding not inhibited by 1 uM Co(III)-Ebox; protein in a lysate after overexpression; protein details: mRNA-injected Xenopus blastula embryo lysate; label: 32P 5' end.
Another series deals with p105 (NF-kB). The series is described as follows: EMSA. The settings on record: legend says Slug probe, methods list NF-kB probe; binding not inhibited by 1 uM Co(III)-Ebox; protein in a lysate after overexpression; protein details: mRNA-injected Xenopus blastula embryo lysate; label: 32P 5' end.
Another series has as its target Snail1 (UniProt O95863). The series can be described thus: activity in cells. The settings on record: PS three linkages at 5' and 3' ends of both strands; 5' C6 amino linker conjugated to Co(III) Schiff base; E-cadherin promoter luciferase derepression, up to 250 nM; protein in cells; protein details: endogenous in MDA-MB-231 cells; only the site is given.
Series [1] addresses T1, Sip1 (XSip1) (Xenopus laevis) (UniProt Q5U4S2).
T1 sequence (looked up, limits assumed): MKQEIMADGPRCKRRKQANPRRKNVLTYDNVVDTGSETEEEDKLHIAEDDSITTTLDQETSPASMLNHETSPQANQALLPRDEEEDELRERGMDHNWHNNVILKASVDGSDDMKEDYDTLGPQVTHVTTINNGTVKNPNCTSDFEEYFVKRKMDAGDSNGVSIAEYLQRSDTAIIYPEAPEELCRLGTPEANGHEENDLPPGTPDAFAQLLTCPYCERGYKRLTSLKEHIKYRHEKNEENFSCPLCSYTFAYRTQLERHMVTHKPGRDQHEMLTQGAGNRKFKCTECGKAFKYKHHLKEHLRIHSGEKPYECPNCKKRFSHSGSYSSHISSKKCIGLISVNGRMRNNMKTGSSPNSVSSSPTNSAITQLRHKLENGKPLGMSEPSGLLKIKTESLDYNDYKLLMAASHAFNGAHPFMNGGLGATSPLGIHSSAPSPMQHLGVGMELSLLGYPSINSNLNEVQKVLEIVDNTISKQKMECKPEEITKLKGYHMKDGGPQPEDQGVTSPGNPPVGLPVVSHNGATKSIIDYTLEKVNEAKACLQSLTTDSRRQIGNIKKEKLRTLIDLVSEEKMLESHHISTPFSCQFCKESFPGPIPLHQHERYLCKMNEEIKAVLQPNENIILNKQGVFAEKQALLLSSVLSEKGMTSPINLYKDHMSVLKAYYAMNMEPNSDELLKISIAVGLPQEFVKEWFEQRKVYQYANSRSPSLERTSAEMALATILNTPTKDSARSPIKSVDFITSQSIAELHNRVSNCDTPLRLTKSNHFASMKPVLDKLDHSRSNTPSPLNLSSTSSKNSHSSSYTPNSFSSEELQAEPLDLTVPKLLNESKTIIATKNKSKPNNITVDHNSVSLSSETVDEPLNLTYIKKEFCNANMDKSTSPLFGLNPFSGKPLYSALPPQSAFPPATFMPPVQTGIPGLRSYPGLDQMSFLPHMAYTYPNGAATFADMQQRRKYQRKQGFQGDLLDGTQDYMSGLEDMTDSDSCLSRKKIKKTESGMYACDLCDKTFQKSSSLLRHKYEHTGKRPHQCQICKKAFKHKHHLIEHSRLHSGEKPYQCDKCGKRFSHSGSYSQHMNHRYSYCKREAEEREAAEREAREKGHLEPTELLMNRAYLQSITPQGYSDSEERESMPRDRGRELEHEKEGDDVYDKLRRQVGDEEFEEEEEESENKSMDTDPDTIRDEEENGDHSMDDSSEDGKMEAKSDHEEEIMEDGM
The series can be described thus: EMSA. The settings on record: embryo lysate, 32P Slug probe; protein in a lysate after overexpression; label: 32P 5' end.

In another series the target is T2, Snail (Snail1) (UniProt P19382).
T2 sequence (looked up, limits assumed): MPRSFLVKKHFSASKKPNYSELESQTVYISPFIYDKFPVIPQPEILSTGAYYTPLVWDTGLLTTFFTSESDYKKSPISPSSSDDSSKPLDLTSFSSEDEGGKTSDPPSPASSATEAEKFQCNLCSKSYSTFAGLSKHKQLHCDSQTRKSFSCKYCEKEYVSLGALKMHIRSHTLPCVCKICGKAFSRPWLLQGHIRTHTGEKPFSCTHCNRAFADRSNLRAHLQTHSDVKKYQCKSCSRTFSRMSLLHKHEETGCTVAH
The series can be described thus: EMSA. The settings on record: embryo lysate, 32P Slug probe; protein in a lysate after overexpression; label: 32P 5' end.

The next series has as its target T3, Slug (Snail2) (UniProt Q91924).
T3 sequence (looked up, limits assumed): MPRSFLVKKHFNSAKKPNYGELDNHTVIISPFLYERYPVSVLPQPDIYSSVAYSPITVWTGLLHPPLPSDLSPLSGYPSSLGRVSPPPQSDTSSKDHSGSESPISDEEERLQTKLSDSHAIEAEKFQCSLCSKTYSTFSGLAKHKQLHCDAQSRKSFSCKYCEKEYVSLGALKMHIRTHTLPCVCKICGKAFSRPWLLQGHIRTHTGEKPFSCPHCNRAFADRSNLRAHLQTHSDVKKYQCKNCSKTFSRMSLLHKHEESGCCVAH
The series is described as follows: EMSA. The settings on record: embryo lysate, poly dI/dC, 0.2 mM ZnSO4, room temperature; protein in a lysate after overexpression; label: 32P 5' end.

The next series concerns Lef-1. The series can be described thus: EMSA. The settings on record: legend says Slug probe, methods list Lef-1 probe; binding not inhibited by 1 uM Co(III)-Ebox; protein in a lysate after overexpression; protein details: mRNA-injected Xenopus blastula embryo lysate; label: 32P 5' end.
Series [2] addresses Ci (Cubitus interruptus) zinc finger region (UniProt P19538). The series is described as follows: competition with a labelled probe. The settings on record: conjugated to Co(III) Schiff base; 1e-12 to 1e-7 M Co(III)-Gli, clear inhibition of DNA binding; oligo sequence assigned from listing (FIG. 9); protein in a lysate after overexpression; protein details: transfected Drosophila S2 cell lysate.

On to CAGGTG (double strand) [MitF probe], for which the binding result with MitF was “binds”.

“GCCTGGGAAAGTCCCCTCAACT (double strand) [NF-kB probe (Promega)]”: in the series on p105 (NF-kB), the binding result was “binds”.

For “TACGACAGGTGTTGGGA (double strand) [Co(III)-Ebox]”, the “activity on this sequence” value in the series with Snail1 is “active”.

Take “TGTTTCCATCCCAACACCTGTCGTATACAA (double strand) [Slug probe]”: the binding result (in series [1]; in the series with Snail (Snail1); in the series with Slug (Snail2)) was “binds” each time.

“TCGAATTCTCACCCTTTGAAGCTCTT (double strand) [Lef-1 probe]”: the binding result in the series with Lef-1 was “binds”.

Take “CTACCTGGGTGGTCTCT (double strand) [Co(III)-Gli]”: in series [2], the binding result is “binds”.
